# Laboratory results reported in the supplement of paper PMC8728848.
# The list shows a part of the results.
# Tests used:
# Assay in all cases: glycan array binding signal (z-score within array); higher = stronger binding
# Conditions in all cases: glycan notation: IUPAC condensed, linker removed
# Gal(b1-4)Glc = target: Gal(b1-4)Glc
# Method in brief: (§1)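 The binding signal is a Z-score computed within each array. Data were drawn from 3228 arrays in the Consortium for Functional Glycomics database, restricted to those with a known protein sequence. Scores were averaged over arrays of the same protein sequence at different concentrations or buffers, and over linkers, and negative values can be taken as non-binding.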
# Gal(b1-4)Glc6S = target: Gal(b1-4)Glc6S
# Method in brief: as §1
# Gal(b1-4)GlcNAc = target: Gal(b1-4)GlcNAc
# Method in brief: as §1
# [1] = target: Gal(b1-4)GlcNAc(a1-6)Gal(b1-4)GlcNAc
# Method in brief: as §1
# Gal(b1-4)GlcNAc(b1-2)Man = target: Gal(b1-4)GlcNAc(b1-2)Man
# Method in brief: as §1
# [2] = target: Gal(b1-4)GlcNAc(b1-2)Man(a1-3)Man(b1-4)GlcNAc(b1-4)GlcNAc
# Method in brief: as §1
# [3] = target: Gal(b1-4)GlcNAc(b1-2)Man(a1-3)[Gal(b1-4)GlcNAc(b1-2)Man(a1-6)]Man(b1-4)GlcNAc(b1-4)GlcNAc
# Method in brief: as §1
# [4] = target: Gal(b1-4)GlcNAc(b1-2)Man(a1-3)[Gal(b1-4)GlcNAc(b1-2)Man(a1-6)]Man(b1-4)GlcNAc(b1-4)[Fuc(a1-6)]GlcNAc
# Method in brief: as §1
# [5] = target: Gal(b1-4)GlcNAc(b1-2)Man(a1-3)[Gal(b1-4)GlcNAc(b1-2)Man(a1-6)][Gal(b1-4)GlcNAc(b1-4)]Man(b1-4)GlcNAc(b1-4)[Fuc(a1-6)]GlcNAc
# Method in brief: as §1
# [6] = target: Gal(b1-4)GlcNAc(b1-2)Man(a1-3)[Gal(b1-4)GlcNAc(b1-2)Man(a1-6)][GlcNAc(b1-4)]Man(b1-4)GlcNAc(b1-4)[Fuc(a1-6)]GlcNAc
# Method in brief: as §1
# [7] = target: Gal(b1-4)GlcNAc(b1-2)Man(a1-3)[GlcNAc(b1-2)Man(a1-6)]Man(b1-4)GlcNAc(b1-4)GlcNAc
# Method in brief: as §1
# [8] = target: Gal(b1-4)GlcNAc(b1-2)Man(a1-3)[GlcNAc(b1-4)][Gal(b1-4)GlcNAc(b1-2)Man(a1-6)]Man(b1-4)GlcNAc(b1-4)GlcNAc
# Method in brief: as §1
# [9] = target: Gal(b1-4)GlcNAc(b1-2)Man(a1-3)[Man(a1-6)]Man(b1-4)GlcNAc(b1-4)GlcNAc
# Method in brief: as §1
# [10] = target: Gal(b1-4)GlcNAc(b1-2)Man(a1-6)Man(b1-4)GlcNAc(b1-4)GlcNAc
# Method in brief: as §1
# [11] = target: Gal(b1-4)GlcNAc(b1-2)Man(a1-6)[GlcNAc(b1-2)Man(a1-3)]Man(b1-4)GlcNAc(b1-4)GlcNAc
# Method in brief: as §1
# [12] = target: Gal(b1-4)GlcNAc(b1-2)Man(a1-6)[Man(a1-3)]Man(b1-4)GlcNAc(b1-4)GlcNAc
# Method in brief: as §1
# [13] = target: Gal(b1-4)GlcNAc(b1-2)[Gal(b1-4)GlcNAc(b1-4)]Man(a1-3)[Gal(b1-4)GlcNAc(b1-2)Man(a1-6)]Man(b1-4)GlcNAc(b1-4)GlcNAc
# Method in brief: as §1
# [14] = target: Gal(b1-4)GlcNAc(b1-2)[Gal(b1-4)GlcNAc(b1-4)]Man(a1-3)[Gal(b1-4)GlcNAc(b1-2)[Gal(b1-4)GlcNAc(b1-6)]Man(a1-6)]Man(b1-4)GlcNAc(b1-4)GlcNAc
# Method in brief: as §1
# [15] = target: Gal(b1-4)GlcNAc(b1-2)[Gal(b1-4)GlcNAc(b1-4)]Man(a1-3)[GlcNAc(b1-4)][Gal(b1-4)GlcNAc(b1-2)Man(a1-6)]Man(b1-4)GlcNAc(b1-4)GlcNAc
# Method in brief: as §1
# [16] = target: Gal(b1-4)GlcNAc(b1-2)[Gal(b1-4)GlcNAc(b1-4)]Man(a1-3)[GlcNAc(b1-4)][Gal(b1-4)GlcNAc(b1-2)[Gal(b1-4)GlcNAc(b1-6)]Man(a1-6)]Man(b1-4)GlcNAc(b1-4)GlcNAc
# Method in brief: as §1
# [17] = target: Gal(b1-4)GlcNAc(b1-2)[Gal(b1-4)GlcNAc(b1-6)]Man(a1-6)[Gal(b1-4)GlcNAc(b1-2)Man(a1-3)]Man(b1-4)GlcNAc(b1-4)GlcNAc
# Method in brief: as §1
# [18] = target: Gal(b1-4)GlcNAc(b1-2)[Gal(b1-4)GlcNAc(b1-6)]Man(a1-6)[Gal(b1-4)GlcNAc(b1-2)Man(a1-3)]Man(b1-4)GlcNAc(b1-4)[Fuc(a1-6)]GlcNAc
# Method in brief: as §1
# [19] = target: Gal(b1-4)GlcNAc(b1-2)[Gal(b1-4)GlcNAc(b1-6)]Man(a1-6)[GlcNAc(b1-4)][Gal(b1-4)GlcNAc(b1-2)Man(a1-3)]Man(b1-4)GlcNAc(b1-4)GlcNAc
# Method in brief: as §1
# [20] = target: Gal(b1-4)GlcNAc(b1-2)[Gal(b1-4)GlcNAc(b1-6)]Man(a1-6)[GlcNAc(b1-4)][Gal(b1-4)GlcNAc(b1-2)[Gal(b1-4)GlcNAc(b1-4)]Man(a1-3)]Man(b1-4)GlcNAc(b1-4)[Fuc(a1-6)]GlcNAc
# Method in brief: as §1
# [21] = target: Gal(b1-4)GlcNAc(b1-3)Gal(b1-3)GalNAc
# Method in brief: as §1
# [22] = target: Gal(b1-4)GlcNAc(b1-3)Gal(b1-3)GlcNAc
# Method in brief: as §1
# [23] = target: Gal(b1-4)GlcNAc(b1-3)Gal(b1-4)Glc
# Method in brief: as §1
# [24] = target: Gal(b1-4)GlcNAc(b1-3)Gal(b1-4)GlcNAc
# Method in brief: as §1
# [25] = target: Gal(b1-4)GlcNAc(b1-3)Gal(b1-4)GlcNAc(b1-2)Man(a1-3)[Gal(b1-4)GlcNAc(b1-3)Gal(b1-4)GlcNAc(b1-2)Man(a1-6)]Man(b1-4)GlcNAc(b1-4)GlcNAc
# Method in brief: as §1
# [26] = target: Gal(b1-4)GlcNAc(b1-3)Gal(b1-4)GlcNAc(b1-2)Man(a1-3)[Gal(b1-4)GlcNAc(b1-3)Gal(b1-4)GlcNAc(b1-2)Man(a1-6)]Man(b1-4)GlcNAc(b1-4)[Fuc(a1-6)]GlcNAc
# Method in brief: as §1
# [27] = target: Gal(b1-4)GlcNAc(b1-3)Gal(b1-4)GlcNAc(b1-2)[Gal(b1-4)GlcNAc(b1-3)Gal(b1-4)GlcNAc(b1-6)]Man(a1-6)[Gal(b1-4)GlcNAc(b1-3)Gal(b1-4)GlcNAc(b1-2)Man(a1-3)]Man(b1-4)GlcNAc(b1-4)GlcNAc
# Method in brief: as §1
# [28] = target: Gal(b1-4)GlcNAc(b1-3)Gal(b1-4)GlcNAc(b1-2)[Gal(b1-4)GlcNAc(b1-3)Gal(b1-4)GlcNAc(b1-6)]Man(a1-6)[Gal(b1-4)GlcNAc(b1-3)Gal(b1-4)GlcNAc(b1-2)Man(a1-3)]Man(b1-4)GlcNAc(b1-4)[Fuc(a1-6)]GlcNAc
# Method in brief: as §1
# [29] = target: Gal(b1-4)GlcNAc(b1-3)Gal(b1-4)GlcNAc(b1-3)Gal(b1-4)GlcNAc
# Method in brief: as §1
# [30] = target: Gal(b1-4)GlcNAc(b1-3)Gal(b1-4)GlcNAc(b1-3)Gal(b1-4)GlcNAc(b1-2)Man(a1-3)[Gal(b1-4)GlcNAc(b1-3)Gal(b1-4)GlcNAc(b1-3)Gal(b1-4)GlcNAc(b1-2)Man(a1-6)]Man(b1-4)GlcNAc(b1-4)GlcNAc
# Method in brief: as §1
# [31] = target: Gal(b1-4)GlcNAc(b1-3)Gal(b1-4)GlcNAc(b1-3)Gal(b1-4)GlcNAc(b1-2)Man(a1-3)[Gal(b1-4)GlcNAc(b1-3)Gal(b1-4)GlcNAc(b1-3)Gal(b1-4)GlcNAc(b1-2)Man(a1-6)]Man(b1-4)GlcNAc(b1-4)[Fuc(a1-6)]GlcNAc
# Method in brief: as §1
# [32] = target: Gal(b1-4)GlcNAc(b1-3)Gal(b1-4)GlcNAc(b1-3)Gal(b1-4)GlcNAc(b1-2)[Gal(b1-4)GlcNAc(b1-3)Gal(b1-4)GlcNAc(b1-3)Gal(b1-4)GlcNAc(b1-6)]Man(a1-6)[Gal(b1-4)GlcNAc(b1-3)Gal(b1-4)GlcNAc(b1-3)Gal(b1-4)GlcNAc(b1-2)Man(a1-3)]Man(b1-4)GlcNAc(b1-4)[Fuc(a1-6)]GlcNAc
# Method in brief: as §1
# [33] = target: Gal(b1-4)GlcNAc(b1-3)Gal(b1-4)GlcNAc(b1-3)Gal(b1-4)GlcNAc(b1-3)Gal(b1-4)GlcNAc(b1-2)Man(a1-3)[Gal(b1-4)GlcNAc(b1-3)Gal(b1-4)GlcNAc(b1-3)Gal(b1-4)GlcNAc(b1-3)Gal(b1-4)GlcNAc(b1-2)Man(a1-6)]Man(b1-4)GlcNAc(b1-4)GlcNAc
# Method in brief: as §1
binder,measurement,setting,value
GS13814A-bth-462-26-462 (Bacteroides thetaiotaomicron) (protein) DDRDNLMVNDQIGLLHSTYTETEIFRGMDTPYQLFVIKSGKGKQETEVSISVDETVLQSYNTDNGTSIQLLPSDCYTILQPALRLNDSDYRKAFDIKWNADRLSDLLSTGKEYGLPIQMSVVQNFISADDERLKTIIVPTIKEPYLQMDVPGMSPVTDFMPTFGDLNERELFVKIRTNYSNDEDISFQIEVDPQLVIDYNTAHGTAYKMLPESSFTVDNKGVILTGMKETFIKIKYHKKGLIPEEGTYLFGDYVLPLRITSVSKYGISPDAASKLYTVKFQPDPIDKKGWSVIDFNNCCTQDGGWYLNMGWGVESLIDNNPGTQWLCRWDVKEPLPYYFVFDMGKEYTLFRFGFANPVAPAAHVWAGTSKAGYVEASIDNENWVKLKDWTSPKIGEPNVNMDVPATQARYIRFVITDTYPTYDGLRVSLGEVYAWGM,glycan array binding signal (z-score),Gal(b1-4)Glc,-0.68
same,glycan array binding signal (z-score),Gal(b1-4)Glc6S,-0.019
same,glycan array binding signal (z-score),Gal(b1-4)GlcNAc,-0.268
same,glycan array binding signal (z-score),[1],-0.7
same,glycan array binding signal (z-score),Gal(b1-4)GlcNAc(b1-2)Man,-0.506
same,glycan array binding signal (z-score),[2],-0.455
same,glycan array binding signal (z-score),[3],-0.931
same,glycan array binding signal (z-score),[4],-0.779
same,glycan array binding signal (z-score),[5],-0.543
same,glycan array binding signal (z-score),[6],0.472
same,glycan array binding signal (z-score),[7],-1.08
same,glycan array binding signal (z-score),[8],-0.313
same,glycan array binding signal (z-score),[9],0.653
same,glycan array binding signal (z-score),[10],-0.692
same,glycan array binding signal (z-score),[11],-0.712
same,glycan array binding signal (z-score),[12],-0.951
same,glycan array binding signal (z-score),[13],-0.756
same,glycan array binding signal (z-score),[14],-0.258
same,glycan array binding signal (z-score),[15],-0.417
same,glycan array binding signal (z-score),[16],0.127
same,glycan array binding signal (z-score),[17],-0.611
same,glycan array binding signal (z-score),[18],-0.543
same,glycan array binding signal (z-score),[19],-0.875
same,glycan array binding signal (z-score),[20],1.79
same,glycan array binding signal (z-score),[21],-0.739
same,glycan array binding signal (z-score),[22],-0.895
same,glycan array binding signal (z-score),[23],0.207
same,glycan array binding signal (z-score),[24],0.079
same,glycan array binding signal (z-score),[25],0.292
same,glycan array binding signal (z-score),[26],1.24
same,glycan array binding signal (z-score),[27],-0.241
same,glycan array binding signal (z-score),[28],-1.28
same,glycan array binding signal (z-score),[29],-0.735
same,glycan array binding signal (z-score),[30],0.96
same,glycan array binding signal (z-score),[31],-0.466
same,glycan array binding signal (z-score),[32],0.613
same,glycan array binding signal (z-score),[33],0.863

# A different layout for some results above.
binder | measurement | setting | value
GS13814A-bth-462-26-462 (Bacteroides thetaiotaomicron) (protein) DDRDNLMVNDQIGLLHSTYTETEIFRGMDTPYQLFVIKSGKGKQETEVSISVDETVLQSYNTDNGTSIQLLPSDCYTILQPALRLNDSDYRKAFDIKWNADRLSDLLSTGKEYGLPIQMSVVQNFISADDERLKTIIVPTIKEPYLQMDVPGMSPVTDFMPTFGDLNERELFVKIRTNYSNDEDISFQIEVDPQLVIDYNTAHGTAYKMLPESSFTVDNKGVILTGMKETFIKIKYHKKGLIPEEGTYLFGDYVLPLRITSVSKYGISPDAASKLYTVKFQPDPIDKKGWSVIDFNNCCTQDGGWYLNMGWGVESLIDNNPGTQWLCRWDVKEPLPYYFVFDMGKEYTLFRFGFANPVAPAAHVWAGTSKAGYVEASIDNENWVKLKDWTSPKIGEPNVNMDVPATQARYIRFVITDTYPTYDGLRVSLGEVYAWGM | glycan array binding signal (z-score) | Gal(b1-4)Glc | -0.68
same | glycan array binding signal (z-score) | Gal(b1-4)GlcNAc | -0.268
same | glycan array binding signal (z-score) | [4] | -0.779
same | glycan array binding signal (z-score) | [7] | -1.08
same | glycan array binding signal (z-score) | [9] | 0.653
same | glycan array binding signal (z-score) | [11] | -0.712
same | glycan array binding signal (z-score) | [14] | -0.258
same | glycan array binding signal (z-score) | [22] | -0.895
